# In all, about 33,000 sequences were measured (“E-score (-0.5 to 0.5)”: median about -0.0034, highest 2% from about 0.25 on). Some of the results follow.
# Target: T1, Yap3 (UniProt P38749)
# T1 sequence: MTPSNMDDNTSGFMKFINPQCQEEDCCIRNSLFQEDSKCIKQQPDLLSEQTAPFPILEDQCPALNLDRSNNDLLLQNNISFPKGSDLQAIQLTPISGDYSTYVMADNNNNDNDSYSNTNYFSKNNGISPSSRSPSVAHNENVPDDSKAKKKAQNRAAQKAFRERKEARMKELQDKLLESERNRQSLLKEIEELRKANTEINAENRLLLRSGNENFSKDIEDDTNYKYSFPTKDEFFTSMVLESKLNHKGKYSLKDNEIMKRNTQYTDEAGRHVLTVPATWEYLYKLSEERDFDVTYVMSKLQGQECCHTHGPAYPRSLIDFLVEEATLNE
# Test: PBM E-score (8-mer binding enrichment) (E-score (-0.5 to 0.5)); higher = stronger / more preferred TF binding
# Details: protein concentration: 100 nM; construct: GST-full length
# Method: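 Universal 'all 10-mer' protein binding microarrays (Agilent AMADID 015681) probed with GST-tagged S. cerevisiae TFs (full-length or DBD) made by in vitro transcription/translation (PURExpress), about 100-200 nM. Bound TF was detected with fluorescent anti-GST. Each ungapped 8-mer (which stands for itself and its reverse complement) is scored by the PBM enrichment score (E-score), a modified Wilcoxon-Mann-Whitney statistic from -0.5 to +0.5, computed with the Universal PBM Analysis Suite. Scale: above 0.35 generally sequence-specific binding.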
row,Sequence,PBM E-score
1,ATGTACTG,0.0402
2,ACGTTAGC,0.103
3,CAGTAAAC,0.0443
4,CCTAGGCA,-0.125
5,ATTAATAC,0.201
6,ACAACGAC,0.117
7,GAGGCCTC,-0.25
8,CTCAGGTA,-0.124
9,ACGGCTCC,-0.021
10,AAAAAGGA,0.0323
11,CCTGAAGC,-0.257
12,TGTTAAAA,0.189
13,CGGTACCA,-0.0367
14,CTTTACGA,-0.0493
15,ATATTAAA,0.378
16,CGAAGTAG,0.0201
17,ACGCAGGC,-0.226
18,TAAGGTGA,0.0963
19,AAGTCCTG,-0.253
20,CCGTGAAC,-0.161
21,CGATTTTA,0.235
22,ACCCACAG,-0.205
23,CAGAAATC,0.0762
24,CAGACGTC,-0.08
25,CGCGAATA,0.117

row,Sequence,PBM E-score
1,ACACACCG,-0.0997
2,AGTCTCTG,-0.131
3,ATCAAGTC,0.0326
4,CAGCGGGA,-0.0551
5,ACGATTTC,0.0995
6,AGATCGAT,0.142
7,AGAAAATC,0.0582
8,ATACGGAC,0.0169
9,AAGAAAAC,0.154
10,ATATCGAA,0.135
11,ACGATCTC,-0.107
12,AAGGTTCT,-0.018
13,CCTGGTTC,-0.0464
14,CTATGTCC,-0.117
15,AATACCTA,0.214
16,TCAAGAAA,0.239
17,CGTAATGC,0.203
18,AGAAGCAT,0.0731
19,CAAGACGC,-0.0247
20,GGAAAAAA,0.248
21,ATTCGATA,0.158
22,TCCGGTAA,0.0357
23,GAGAAAAA,0.095
24,CACCAAGG,-0.0382
25,ATGCTACC,0.0357

row,Sequence,PBM E-score
1,CGCTACAG,-0.0993
2,AAAGCGAT,0.188
3,CCCATGGG,-0.128
4,GTATACTA,-0.112
5,ACCATGGG,-0.172
6,GCAGGTAC,-0.146
7,ACCCTAAA,-0.078
8,TATTAGAA,0.287
9,GCCGCAAA,0.103
10,AGGAAAAA,0.135
11,ATTCTTGC,0.104
12,GCTCGGAC,-0.0978
13,CGTCTGCC,-0.214
14,AGTTGCAT,0.0716
15,ACACCCGG,-0.139
16,GCCGGAAC,-0.0692
17,ATAGTTCA,0.181
18,ATAATGCA,0.121
19,AATCCCGA,0.154
20,ACATTTCA,0.204
21,AGAGCATA,0.00098
22,CGCAGCAC,-0.00122
23,AATATGGG,0.0708
24,ACATACAT,0.219
25,CTTGCTCA,-0.206

row,Sequence,PBM E-score
1,ACAGCAAA,0.0507
2,CGTGGAAA,0.252
3,CACGTTGG,-0.0606
4,GTAGCAAC,-0.0446
5,CACCGCAG,-0.0641
6,ACGGCGCG,0.14
7,ACTCCATA,0.00285
8,CGTCGACC,-0.0395
9,ATAGCCGC,0.00965
10,GAGCGCCA,-0.234
11,CGTTTAGA,0.125
12,GTCACCCA,-0.129
13,CTTACACA,0.0468
14,AACAGGCA,0.0613
15,GATATATC,0.133
16,ACTGAGTA,0.0587
17,CTGGAATA,0.198
18,GTCCACAC,0.00272
19,AACTACGC,-0.0379
20,AAGACCAG,-0.133
21,TGATGGAA,0.108
22,ATGTCACA,0.17
23,GTTTAAAA,0.0984
24,AATGTGAG,0.0871
25,AAGACTAA,0.0191

# Quoted at random: 6 entries already listed.
row,Sequence,PBM E-score
5,ATTAATAC,0.201
6,AGATCGAT,0.142
10,AAAAAGGA,0.0323
15,GATATATC,0.133
8,TATTAGAA,0.287
12,TGTTAAAA,0.189

# Remaining list, next part

row,Sequence,PBM E-score
1,TCAGCCAA,-0.0735
2,ATCTCGCA,0.126
3,AGCAGCCG,-0.093
4,AGAATGCG,0.0426
5,CGAAGGCA,-0.16
6,AAGTGACC,-0.153
7,ATGTTGGC,0.152
8,GCCATTGA,0.0559
9,ATTTCAGG,0.00794
10,CCAACTTA,0.0826
11,GAAGCTGC,-0.0281
12,CCTTTGAC,-0.0985
13,CTCTTGGC,-0.101
14,CGCGTCAC,0.0199
15,AAAGTCGT,0.0717
16,AAGCGGCT,0.0678
17,CAAAACTG,0.144
18,ATCCCAAC,-0.0666
19,CTATCGTC,-0.134
20,CTGGCTTC,-0.202
21,ACGAAAAC,0.202
22,ATCGGTAC,0.0358
23,TAGCGCTA,0.00734
24,ATCATAGA,0.168
25,ACATGCCG,0.0724

row,Sequence,PBM E-score
1,AAGGACGT,0.077
2,TATGGGGA,0.143
3,ACAGCTCG,-0.175
4,GACCTTCA,-0.095
5,ATTAAACG,0.215
6,CGACTGCC,-0.0679
7,ACAGGCGA,-0.197
8,CTAGTAAA,0.0933
9,CCCACACC,0.0489
10,TCCTGGAA,-0.193
11,ACTACTCC,-0.147
12,GATGTATA,0.0115
13,CGAGCTGA,0.081
14,AGCAGCAT,-0.0372
15,AGGTGACC,-0.307
16,GGTGTTCA,-0.0114
17,ACACCAAG,0.0296
18,CTGACGGA,-0.00761
19,AATCGAGC,0.00828
20,CACGGCGA,-0.121
21,CCTTCACA,0.0677
22,ACCGACGC,-0.185
23,AACTTCTG,0.0514
24,CCGCGTAC,-0.0388
25,CCAAGGGA,-0.138

row,Sequence,PBM E-score
1,GCTAAGGA,-0.115
2,ACCCGCCG,0.127
3,ACAGGACA,-0.0394
4,CGCACTGA,-0.0906
5,AGGCATTG,0.0156
6,GGACACTA,-0.0643
7,ACACCCAA,0.0757
8,AGTATCGA,0.24
9,CGACAGCG,-0.199
10,TACGAATA,0.183
11,ACCTGTTA,-0.0588
12,CTCACCGA,-0.115
13,GTACCTAC,-0.0495
14,ACTTTTGC,0.106
15,AAGTTGCT,-0.127
16,CTAGCGTA,-0.179
17,AGACTAGC,-0.245
18,CCTCCATA,-0.156
19,ATAGCCGG,-0.123
20,CTACACAA,0.183
21,GGCACCCA,-0.257
22,CCTAACTA,0.0805

# Laid out differently: entries from further up
row | Sequence | PBM E-score
14 | CTATGTCC | -0.117
14 | AGTTGCAT | 0.0716
